Test results published in publication PMC12138163.
No constants are given. Whether binding was seen depends on the method and setting. For some of these results: In cells and extracts the contact can be indirect. For some of these results: Binding calls can cover weak binding; strength is not graded here. For some of these results: Where a sequence is shown, tags or fusion partners need not be part of it.

Key:
[1] = molecular target: GFP-SJP39 (mature SJP39, 32-114) (jujube witches' broom (JWB) phytoplasma); test: co-IP; co-expression in N. benthamiana leaves, total protein extracts on GFP-Trap magnetic agarose beads 1.5 h at 4°C; extraction buffer with 150 mM NaCl, 0.1% NP-40, MG132; blots with anti-GFP and anti-Myc
[2] = molecular target: SJP39^32–77 in pDEST32, yeast two-hybrid bait (jujube witches' broom (JWB) phytoplasma); test: two-hybrid; pairwise: pDEST32 bait and pDEST22 prey co-transformed into yeast AH109, growth on SD-LTH with 10 mM 3-AT at 28°C for 3–5 d
[3] = molecular target: GST-SJP39^78–114 (jujube witches' broom (JWB) phytoplasma); test: pull-down; purified GST fusions and His-tagged bHLH87 incubated with glutathione agarose at 4°C for 3 h; wash 20 mM Tris–HCl pH 7.4, 1 mM EDTA, 200 mM NaCl, 1 mM DTT; immunoblot with anti-GST or anti-His; both purified
[4] = molecular target: GST-SJP39^32–77 (jujube witches' broom (JWB) phytoplasma); test: as above

B1: AtbHLH87-Myc (protein, UniProt Q8S3D2 1-373)
chain: MEGLESVYAQAMYGMTRESKIMEHQGSDLIWGGNELMARELCSSSSYHHQLINPNLSSCFMSDLGVLGEIQQQQHVGNRASSIDPSSLDCLLSATSNSNNTSTEDDEGISVLFSDCQTLWSFGGVSSAESENREITTETTTTIKPKPLKRNRGGDGGTTETTTTTTKPKSLKRNRGDETGSHFSLVHPQDDSEKGGFKLIYDENQSKSKKPRTEKERGGSSNISFQHSTCLSDNVEPDAEAIAQMKEMIYRAAAFRPVNFGLEIVEKPKRKNVKISTDPQTVAARQRRERISEKIRVLQTLVPGGTKMDTASMLDEAANYLKFLRAQVKALENLRPKLDQTNLSFSSAPTSFPLFHPSFLPLQNPNQIHHPEC
For B1, the binding [1] was “binds”.

B2: AtbHLH87 in pDEST22, yeast two-hybrid prey (protein, UniProt Q8S3D2 1-373)
chain: B1 chain
For B2, the binding [2] was “no binding”.

B3: His-AtbHLH87 (protein, UniProt Q8S3D2 1-373)
chain: B1 chain
For B3, the binding [3] was “no binding” and the binding [4] was “no binding”.
